Assay results

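Malaria parasite (P. falciparum) lines kept in red blood cells; parasite DNA is measured by SYBR Green fluorescence after lysis, 72 h after compound addition.
Each compound was titrated across a series from about 0.000037 to 29 µM.
The number is the fitted AC50, the concentration giving a half-maximal change in signal; a lower value means higher potency, whether the curve shows a decrease or an increase.
Calls follow the curve class and fit quality: every row here is inconclusive, covering signal-raising curves and weak, poorly fitted, partial or highest-dose-only inhibition curves.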

Values are in nM.
Every entry below has the call inconclusive.
These entries are mostly ones the record files as inconclusive; other results of the assay are not listed here.
Potencies fitted to partial, single-point or poorly fitting curves are rough.
Some entries filed as inconclusive have a full curve.
The first word of each remark tells which way the curve ran; it can be opposite to the aim of the assay.

compound | condition | potency (nM) | curve
CN(C)CCOc1ccccc1Cc1ccccc1 | CP291 | 6746 | inhibitor, partial curve
CN(C)CCOc1ccccc1Cc1ccccc1 | CP262 | 16944 | inhibitor, partial curve
CN(C)CCOc1ccccc1Cc1ccccc1 | CP247 | 1122 | inhibitor, full curve
CN(C)CCOc1ccccc1Cc1ccccc1 | GB4 | 4.3 | activator
CN(C)CCOc1ccccc1Cc1ccccc1 | PC15 | 7080 | inhibitor, partial curve
CN(C)CCOc1ccccc1Cc1ccccc1 | PAD | 251.2 | inhibitor, full curve, poor fit
CN(C)CCOc1ccccc1Cc1ccccc1 | CP335 | 19011 | inhibitor, single point
CN(C)CCOc1ccccc1Cc1ccccc1 | P94_40 | 3162 | inhibitor, partial curve, poor fit
CN(C)CCOc1ccccc1Cc1ccccc1 | CP252 | 8912 | inhibitor, partial curve
CN(C)CCOc1ccccc1Cc1ccccc1 | CP269 | 6746 | inhibitor, partial curve
CN(C)CCOc1ccccc1Cc1ccccc1 | CP211 | 190.1 | inhibitor, full curve, poor fit
CN(C)CCOc1ccccc1Cc1ccccc1 | CP268 | 338.1 | inhibitor, full curve, poor fit
CN(C)CCOc1ccccc1Cc1ccccc1 | JCK | 891.3 | inhibitor, partial curve
CN(C)CCOc1ccccc1Cc1ccccc1 | CP266 | 9528 | inhibitor, partial curve, poor fit
CN(C)CCOc1ccccc1Cc1ccccc1 | TAB113 | 14125 | inhibitor, partial curve
CN(C)CCOc1ccccc1Cc1ccccc1 | ICS | 2239 | inhibitor, full curve
CN(C)CCOc1ccccc1Cc1ccccc1 | CP325 | 0.5 | inhibitor
CN(C)CCOc1ccccc1Cc1ccccc1 | CP286 | 3981 | inhibitor, full curve
CN(C)CCOc1ccccc1Cc1ccccc1 | CP250 | 5012 | inhibitor, partial curve
CN(C)CCOc1ccccc1Cc1ccccc1 | CP203 | 6746 | inhibitor, partial curve, poor fit
CN(C)CCOc1ccccc1Cc1ccccc1 | PC26 | 5358 | inhibitor, partial curve, poor fit
CN(C)CCOc1ccccc1Cc1ccccc1 | ECU | 12.6 | inhibitor, full curve, poor fit
CN(C)CCOc1ccccc1Cc1ccccc1 | CP191 | 15848 | inhibitor, single point
CN(C)CCOc1ccccc1Cc1ccccc1 | C2A | 11220 | inhibitor, partial curve
CN(C)CCOc1ccccc1Cc1ccccc1 | CP256 | 7943 | inhibitor, partial curve
CN(C)CCOc1ccccc1Cc1ccccc1 | CP329 | 19011 | inhibitor, single point
CN(C)CCOc1ccccc1Cc1ccccc1 | CP305 | 6012 | inhibitor, partial curve, poor fit
CN(C)CCOc1ccccc1Cc1ccccc1 | ATS95 | 5623 | inhibitor, partial curve
CN(C)CCOc1ccccc1Cc1ccccc1 | SC27B | 11220 | inhibitor, partial curve

From PubChem BioAssay record AID504749 (NCATS, 2011).